PubChem BioAssay AID1259308, NCATS | 2017

Test: 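Knock-downs that increase output of a recombinant reporter protein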 (primary screen)
Cell system: human HEK293 embryonic kidney cells stably expressing firefly luciferase (HEK-CMV-Luc2-Hygro)
Reagents: single siRNA against human genes, 0.8 pmol siRNA per well
Timing: 72 h
Measurement: 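Luciferase light (ONE-Glo) measured on one replicate plate set and viability (CellTiter-Glo) on the other, scaled to a negative control siRNA, with robust z-scores and luciferase per cell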
Reading the numbers: total luciferase, z-score: higher = more reporter protein produced
Call rule: 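An siRNA counts as active if its total luciferase robust z-score exceeds 3; genes with two or more such siRNAs out of three were retested with fresh siRNAs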
Calls: active = raised luciferase; inactive = no rise
The deposit covers about 59,000 reagents; shown is a random part of them. About 1,510 of them (2.6%) were called active. 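Calls use total luciferase alone and ignore viability, so some active siRNAs may act by altering cell number.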 A number with no mark means an inactive call. Reagents against one gene are numbered here. Not all columns of the deposit are shown. No sequences are given here.

PTPN4 #1 | total luciferase, z-score = -1.57
PTPN4 #2 | total luciferase, z-score = 0.18
PTPN4 #3 | total luciferase, z-score = -0.932
DGKK #1 | total luciferase, z-score = 0.183
DGKK #2 | total luciferase, z-score = -0.391
DGKK #3 | total luciferase, z-score = -0.825
ZNF470 #1 | total luciferase, z-score = -0.726
ZNF470 #2 | total luciferase, z-score = 0.0828
ZNF470 #3 | total luciferase, z-score = -0.318
HNRNPA1P60 #1 | total luciferase, z-score = -1.64
HNRNPA1P60 #2 | total luciferase, z-score = -2.04
HNRNPA1P60 #3 | total luciferase, z-score = 2.66
CD52 #1 | total luciferase, z-score = 1.07
CD52 #2 | total luciferase, z-score = 1.42
CD52 #3 | total luciferase, z-score = -0.336

Ordered by “total luciferase, z-score” (low to high): some entries from above.
HNRNPA1P60 #1 | total luciferase, z-score = -1.64
ZNF470 #3 | total luciferase, z-score = -0.318

Continued:
PGCKA1 #1 | total luciferase, z-score = -0.344
PGCKA1 #2 | total luciferase, z-score = 1.96
PGCKA1 #3 | total luciferase, z-score = -0.189
SLC46A2 #1 | total luciferase, z-score = 1.21
SLC46A2 #2 | total luciferase, z-score = -0.769
SLC46A2 #3 | total luciferase, z-score = -1.11
LINC00174 #1 | total luciferase, z-score = -1.84
LINC00174 #2 | total luciferase, z-score = 0.962
LINC00174 #3 | total luciferase, z-score = 0.371
SYCP2L #1 | total luciferase, z-score = -0.347
SYCP2L #2 | total luciferase, z-score = -1.65
SYCP2L #3 | total luciferase, z-score = -0.194
USP30 #1 | total luciferase, z-score = 1.01
USP30 #2 | total luciferase, z-score = -0.133
USP30 #3 | total luciferase, z-score = 4.09 (active)
KCNK16 #1 | total luciferase, z-score = -2.67
KCNK16 #2 | total luciferase, z-score = 0.0165
KCNK16 #3 | total luciferase, z-score = 0.817
